Laboratory results from publication doi:10.1101/2020.07.24.220525.

What was measured:
Assay in all cases: two-hybrid
[1] = biological target: T1, Mtg16 wild type fused to LexA DNA-binding domain (UniProt O54972)
T1 sequence: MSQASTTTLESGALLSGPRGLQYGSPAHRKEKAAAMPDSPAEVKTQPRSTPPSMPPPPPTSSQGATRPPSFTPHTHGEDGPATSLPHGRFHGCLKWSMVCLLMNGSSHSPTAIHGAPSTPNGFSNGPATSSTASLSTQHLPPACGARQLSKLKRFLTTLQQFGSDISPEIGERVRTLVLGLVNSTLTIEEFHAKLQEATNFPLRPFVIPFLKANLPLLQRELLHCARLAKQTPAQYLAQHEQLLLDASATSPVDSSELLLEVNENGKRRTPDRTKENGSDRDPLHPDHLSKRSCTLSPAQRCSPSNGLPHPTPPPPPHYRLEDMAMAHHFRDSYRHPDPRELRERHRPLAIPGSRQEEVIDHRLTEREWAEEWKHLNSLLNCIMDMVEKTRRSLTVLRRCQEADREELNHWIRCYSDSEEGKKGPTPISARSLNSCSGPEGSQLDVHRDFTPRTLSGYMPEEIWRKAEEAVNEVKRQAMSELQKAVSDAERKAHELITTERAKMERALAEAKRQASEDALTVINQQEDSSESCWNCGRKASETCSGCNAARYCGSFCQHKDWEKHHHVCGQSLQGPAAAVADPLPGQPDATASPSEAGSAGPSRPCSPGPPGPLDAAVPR

[2] = biological target: T2, Mtg16 P209T fused to LexA DNA-binding domain (UniProt O54972)
T2 sequence: T1 sequence with P209T

[3] = biological target: T3, Mtg16 F210A fused to LexA DNA-binding domain (UniProt O54972)
T3 sequence: T1 sequence with F210A

Measured: binding

Zbtb38-Gal4-AD
binds: all assays above

Changes are numbered by the printed parent chain. Results are given in words; binding and its absence hold for the method and conditions named. Binding can be weak; no strength is given. Sequences can lack the tags named with a protein.
